Results taken from patent publication US10494610B2, “Three dimensional matrix for cancer stem cells” (UNIVERSITY OF SOUTH CAROLINA, priority 2013, dated 2019).
Some of these results come from one statement about several compounds together.

Test system: 4T1 mouse breast carcinoma cells
Assay: Tumorsphere formation, size and cell number of cells encapsulated in the gel
Assay type: cell-based
Conditions: 4T1 in peptide-conjugated gels, 9 days
Description: 4T1 and MCF7 tumor cells were cultured in RMPI-1640 medium with 10% FBS under 5% CO2 at 37° C. Cells were trypsinized after reaching 70% confluency. PEGDA macromer was dissolved in PBS and sterilized by filtration with a 0.2 μm filter. Next, 1.4×10^5/mL 4T1 or MCF7 cells suspended in PBS were added to the macromer solution with final PEGDA concentrations ranging 5-25 wt % and mixed gently with a pre-sterilized glass rod. The cell-suspended hydrogel precursor solution was crosslinked with UV for 10 min. After crosslinking, the gel was cut into disks and incubated in stem cell culture medium in ultra-low attachment tissue culture plates under 5% CO2. […]
To determine cell viability, gels were stained with cAM/EthD live/dead dyes 2 days after encapsulation to image live and dead cells, respectively. […] Cell viability was quantified by dividing the image into smaller squares and counting the number of live and dead cells. […] The fluorescence of the solution was measured with a plate reader (Synergy HT, Bio-Tek, Winooski, Vt.) at emission and excitation wavelength of […], respectively. Measured fluorescent intensities were correlated to cell numbers using a calibration curve constructed with 4T1 or MCF7 cells of known concentration ranging from zero to […]. […]

Substance | size of cell aggregates / spheres [μm]
GRGDS [IBP] | < 25
RLVSYNGIIFFLK [conj CD44BP] (conjugated to PEGDA gel) | < 25
